Experimental data taken from doi:10.1101/2021.07.15.452438 (bioRxiv, 2021).
Results are given in words; binding and its absence hold for the method and conditions named. Binding seen in cells or lysates may run through a third protein. A yes stands for co-enrichment or nearness to the bait. Other partners may have been found.

Sequences of proteins named here, by UniProt entry; tags and fusion partners are left off.
UniProt O14646: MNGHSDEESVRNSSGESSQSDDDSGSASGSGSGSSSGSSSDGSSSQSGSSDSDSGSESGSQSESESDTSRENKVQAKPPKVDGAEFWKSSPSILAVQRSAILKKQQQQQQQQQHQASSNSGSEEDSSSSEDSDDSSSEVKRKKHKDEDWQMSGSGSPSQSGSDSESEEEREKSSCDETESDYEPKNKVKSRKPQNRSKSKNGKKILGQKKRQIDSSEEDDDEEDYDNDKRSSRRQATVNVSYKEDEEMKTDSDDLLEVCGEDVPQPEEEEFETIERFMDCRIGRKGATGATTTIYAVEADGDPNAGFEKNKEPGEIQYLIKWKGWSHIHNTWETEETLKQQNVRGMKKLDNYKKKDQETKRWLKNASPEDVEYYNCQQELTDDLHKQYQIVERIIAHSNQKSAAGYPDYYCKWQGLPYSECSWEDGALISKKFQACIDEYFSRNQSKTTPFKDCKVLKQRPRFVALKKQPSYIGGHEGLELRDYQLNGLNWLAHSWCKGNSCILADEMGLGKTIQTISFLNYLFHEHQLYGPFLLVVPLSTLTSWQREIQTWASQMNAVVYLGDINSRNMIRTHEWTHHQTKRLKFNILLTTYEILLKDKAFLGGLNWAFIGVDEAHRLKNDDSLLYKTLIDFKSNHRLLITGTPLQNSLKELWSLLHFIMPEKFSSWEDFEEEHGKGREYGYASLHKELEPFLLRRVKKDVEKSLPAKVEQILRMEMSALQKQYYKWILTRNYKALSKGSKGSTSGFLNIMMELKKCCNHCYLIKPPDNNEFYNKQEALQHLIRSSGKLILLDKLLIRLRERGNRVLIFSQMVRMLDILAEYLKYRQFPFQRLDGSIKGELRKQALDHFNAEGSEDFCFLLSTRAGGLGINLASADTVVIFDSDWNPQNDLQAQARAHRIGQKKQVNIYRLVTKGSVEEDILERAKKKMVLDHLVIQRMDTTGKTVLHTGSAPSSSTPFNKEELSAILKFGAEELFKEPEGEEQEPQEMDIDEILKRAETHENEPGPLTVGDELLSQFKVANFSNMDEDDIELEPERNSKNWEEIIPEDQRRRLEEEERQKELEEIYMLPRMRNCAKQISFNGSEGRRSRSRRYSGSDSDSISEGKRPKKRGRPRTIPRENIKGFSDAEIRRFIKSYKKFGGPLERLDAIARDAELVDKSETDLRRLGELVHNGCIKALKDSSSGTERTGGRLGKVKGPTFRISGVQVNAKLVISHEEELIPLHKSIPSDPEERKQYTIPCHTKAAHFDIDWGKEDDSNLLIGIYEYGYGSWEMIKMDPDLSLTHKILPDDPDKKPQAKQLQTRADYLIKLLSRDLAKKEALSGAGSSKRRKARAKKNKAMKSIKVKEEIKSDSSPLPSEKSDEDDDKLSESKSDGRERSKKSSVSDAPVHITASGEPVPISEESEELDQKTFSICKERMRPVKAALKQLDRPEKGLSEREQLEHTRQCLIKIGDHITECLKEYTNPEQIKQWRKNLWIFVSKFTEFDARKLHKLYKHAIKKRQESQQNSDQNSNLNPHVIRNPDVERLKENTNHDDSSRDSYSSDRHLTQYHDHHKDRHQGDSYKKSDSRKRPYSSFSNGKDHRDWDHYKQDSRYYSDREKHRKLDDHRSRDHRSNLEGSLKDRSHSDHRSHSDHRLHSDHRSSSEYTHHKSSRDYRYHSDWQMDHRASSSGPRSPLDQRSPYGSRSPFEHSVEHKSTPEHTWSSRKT

Target: TurboID-BRD4-ET (UniProt O60885 600-678)
Experiment: proximity labelling

binding: binds
Substance: CHD1 (from UniProt O14646 1-1710)
